Source: publication PMC6019379, “RecA-like domain 2 of DNA-dependent ATPase A domain, a SWI2/SNF2 protein, mediates conformational integrity and ATP hydrolysis” (Bioscience Reports, 2018)
Positions count from the first letter of the chain named. Construct, isoform or probe ends are uncertain for at least one entry. Where a protein sequence is shown, tags need not be part of it.

What was measured:
Test in all cases: intrinsic tryptophan fluorescence titration
Conditions in all cases: saturating ATP; recombinant protein; protein details: His (Ni-NTA, pET-14b); folded or branched DNA
[1] = molecular target: T1, ADAAD F507W F727W (Bos taurus (bovine)) (UniProt Q9TTA5)
T1 sequence (looked up, limits assumed): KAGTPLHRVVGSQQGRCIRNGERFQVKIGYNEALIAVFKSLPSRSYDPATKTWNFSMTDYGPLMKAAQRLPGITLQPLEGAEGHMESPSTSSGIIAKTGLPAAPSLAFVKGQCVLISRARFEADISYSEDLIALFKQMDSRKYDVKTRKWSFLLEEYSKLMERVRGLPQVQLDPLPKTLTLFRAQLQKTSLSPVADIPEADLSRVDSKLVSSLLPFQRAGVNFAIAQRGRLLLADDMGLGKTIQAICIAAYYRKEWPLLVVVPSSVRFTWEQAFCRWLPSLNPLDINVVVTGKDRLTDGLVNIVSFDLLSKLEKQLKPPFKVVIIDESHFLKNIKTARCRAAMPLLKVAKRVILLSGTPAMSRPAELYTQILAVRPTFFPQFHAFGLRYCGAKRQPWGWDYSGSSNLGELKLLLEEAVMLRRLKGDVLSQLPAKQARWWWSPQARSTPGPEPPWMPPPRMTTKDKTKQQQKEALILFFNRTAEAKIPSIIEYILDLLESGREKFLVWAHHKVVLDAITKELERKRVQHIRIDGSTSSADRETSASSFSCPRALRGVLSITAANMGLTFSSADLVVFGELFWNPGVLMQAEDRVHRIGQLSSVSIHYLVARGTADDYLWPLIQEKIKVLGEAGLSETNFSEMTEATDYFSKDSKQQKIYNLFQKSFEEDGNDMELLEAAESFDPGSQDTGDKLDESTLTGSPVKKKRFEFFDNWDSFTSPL

[2] = molecular target: T2, ADAAD R595A R815A (Bos taurus (bovine)) (UniProt Q9TTA5)
T2 sequence (looked up, limits assumed): T1 sequence (looked up, limits assumed) with W507F, R595A

[3] = molecular target: T3, ADAAD R595H R815H (Bos taurus (bovine)) (UniProt Q9TTA5)
T3 sequence (looked up, limits assumed): T1 sequence (looked up, limits assumed) with W507F, R595H

[4] = molecular target: T4, ADAAD S558A S778A (Bos taurus (bovine)) (UniProt Q9TTA5)
T4 sequence (looked up, limits assumed): T1 sequence (looked up, limits assumed) with W507F, S558A

Work on “GCGCAATTGCGCTCGACGATTTTTTAGCGCAATTGCGC [slDNA (stem-loop DNA)]” yielded a Kd [1] of 0.014 µM, a Kd [2] of 0.0075 µM and a Kd [3] of 0.0101 µM. It also gave a Kd [4] of 0.0138 µM.
